The record followed here is article PMC8751737 (International journal of pharmaceutics, 2021).

SMILES strings stand for the structures.

One experiment deals with MCF-7. Kind of experiment: Antiproliferative activity, CellTiter-Glo assay. In kind it is cell-based, human. Conditions: read-out: IC50 (72 Hours) MCF-7, 72 h incubation, triplicate. On the technique in general: Cellular ATP, detected with luciferase, serves as a proxy for viable cell number.
The next experiment concerns A549. Briefly: Antiproliferative activity, CellTiter-Glo assay. In kind it is cell-based, human. Conditions: read-out: IC50 (72 Hours) A549, 72 h incubation, triplicate.

As usually defined, the IC50 is the concentration that inhibits the measured activity by half. `COc1cccc2c1C(=O)c1c(O)c3c(c(O)c1C2=O)C[C@@](O)(C(=O)CO)C[C@@H]3O[C@H]1C[C@H](N)[C@H](O)[C@H](C)O1` [Free Dox, Doxorubicin]: the IC50 worked out at 316 ± 165 nM with MCF-7 and 490 ± 79 nM in the experiment on A549.
